Results on five substances are retold here after publication PMC11109976.

By UniProt entry, the sequences of proteins in these tests, tags left out. Where a name states a change or a piece, a line headed by the entry shows the natural chain unless it says otherwise. Chains listed by the source or under a name are the forms on record and can include a tag or linker.
UniProt P27694: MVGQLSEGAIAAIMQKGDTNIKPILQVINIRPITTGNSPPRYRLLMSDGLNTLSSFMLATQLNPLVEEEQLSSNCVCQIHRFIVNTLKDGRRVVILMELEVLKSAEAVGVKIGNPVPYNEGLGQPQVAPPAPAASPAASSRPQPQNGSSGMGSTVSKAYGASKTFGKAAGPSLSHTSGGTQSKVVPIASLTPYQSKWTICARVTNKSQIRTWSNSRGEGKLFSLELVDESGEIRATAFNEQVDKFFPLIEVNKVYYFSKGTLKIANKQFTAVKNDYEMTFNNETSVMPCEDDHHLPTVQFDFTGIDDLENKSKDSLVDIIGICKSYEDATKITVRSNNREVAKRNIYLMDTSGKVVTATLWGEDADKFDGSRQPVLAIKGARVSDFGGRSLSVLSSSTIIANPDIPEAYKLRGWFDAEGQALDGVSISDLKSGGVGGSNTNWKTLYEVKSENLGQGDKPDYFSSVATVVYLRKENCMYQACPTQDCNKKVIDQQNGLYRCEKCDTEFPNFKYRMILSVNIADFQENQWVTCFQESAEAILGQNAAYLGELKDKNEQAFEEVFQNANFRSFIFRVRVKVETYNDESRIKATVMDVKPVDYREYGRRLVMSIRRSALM
UniProt P15927: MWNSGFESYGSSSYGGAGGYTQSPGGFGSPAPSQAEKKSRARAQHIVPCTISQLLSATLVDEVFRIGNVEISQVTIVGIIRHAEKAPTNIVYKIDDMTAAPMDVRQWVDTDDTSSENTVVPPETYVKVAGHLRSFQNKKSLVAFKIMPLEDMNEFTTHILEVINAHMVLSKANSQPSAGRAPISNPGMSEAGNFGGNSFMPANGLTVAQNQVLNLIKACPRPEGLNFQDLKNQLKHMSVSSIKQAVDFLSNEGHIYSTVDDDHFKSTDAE
Myc-CSB-R176Q177K178-AAA (Q03468-1, form named): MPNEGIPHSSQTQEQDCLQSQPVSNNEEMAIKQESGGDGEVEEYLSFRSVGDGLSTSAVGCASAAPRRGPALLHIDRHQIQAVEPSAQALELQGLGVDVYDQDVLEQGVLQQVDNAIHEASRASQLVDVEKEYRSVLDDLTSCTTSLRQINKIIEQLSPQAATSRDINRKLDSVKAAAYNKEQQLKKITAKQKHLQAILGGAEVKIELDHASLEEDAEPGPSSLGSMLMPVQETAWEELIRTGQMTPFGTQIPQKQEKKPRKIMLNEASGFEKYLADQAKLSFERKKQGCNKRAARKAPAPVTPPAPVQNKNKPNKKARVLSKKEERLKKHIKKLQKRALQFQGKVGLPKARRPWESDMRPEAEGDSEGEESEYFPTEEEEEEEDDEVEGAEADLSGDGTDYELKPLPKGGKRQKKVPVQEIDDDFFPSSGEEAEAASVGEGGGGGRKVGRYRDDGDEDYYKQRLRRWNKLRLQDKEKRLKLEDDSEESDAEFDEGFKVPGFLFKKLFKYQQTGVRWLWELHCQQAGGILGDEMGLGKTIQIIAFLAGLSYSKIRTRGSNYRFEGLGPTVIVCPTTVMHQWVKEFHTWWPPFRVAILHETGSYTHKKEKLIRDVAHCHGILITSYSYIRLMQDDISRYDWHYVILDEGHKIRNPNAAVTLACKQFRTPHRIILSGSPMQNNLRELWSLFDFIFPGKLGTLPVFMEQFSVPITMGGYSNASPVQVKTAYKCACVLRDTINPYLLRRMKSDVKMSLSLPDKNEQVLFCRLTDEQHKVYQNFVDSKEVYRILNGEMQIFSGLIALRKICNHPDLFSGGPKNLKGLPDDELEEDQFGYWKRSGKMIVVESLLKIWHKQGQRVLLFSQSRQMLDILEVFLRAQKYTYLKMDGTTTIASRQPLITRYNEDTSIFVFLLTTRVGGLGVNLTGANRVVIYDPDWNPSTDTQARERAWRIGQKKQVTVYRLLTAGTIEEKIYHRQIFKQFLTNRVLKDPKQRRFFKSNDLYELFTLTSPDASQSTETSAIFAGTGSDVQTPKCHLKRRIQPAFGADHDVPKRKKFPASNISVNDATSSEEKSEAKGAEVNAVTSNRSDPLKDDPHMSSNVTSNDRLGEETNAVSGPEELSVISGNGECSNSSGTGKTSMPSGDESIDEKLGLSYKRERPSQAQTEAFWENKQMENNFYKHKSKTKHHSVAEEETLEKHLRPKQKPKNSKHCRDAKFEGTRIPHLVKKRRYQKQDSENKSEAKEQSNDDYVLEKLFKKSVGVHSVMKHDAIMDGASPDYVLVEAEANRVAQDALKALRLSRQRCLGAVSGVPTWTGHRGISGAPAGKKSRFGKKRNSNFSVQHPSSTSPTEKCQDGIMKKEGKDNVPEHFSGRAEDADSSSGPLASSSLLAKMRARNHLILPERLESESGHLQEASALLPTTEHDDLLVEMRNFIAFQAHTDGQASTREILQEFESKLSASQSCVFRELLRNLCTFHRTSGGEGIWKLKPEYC

In one experiment the target is Myc-RPA70 (UniProt P27694). In words: co-IP; HEK293 cells overexpressing both partners; IP with anti-Myc antibody; blots with anti-Myc and anti-mCherry or anti-HA; with or without 4 mM HU for 4 h.
Another experiment addresses Myc-RPA32 (UniProt P15927). The experiment is described as above.
In experiment [1] the target is RPA32-pS33 (human (endogenous in U2OS)) (UniProt P15927). In words: proximity ligation; U2OS CSB-KO cells stably expressing vector, Myc-CSB or Myc-CSB-AAA; Duolink PLA between anti-Myc and RPA32-pS33; HU-treated.
For experiment [2] the target is unchanged. Kind of experiment: proximity ligation; hTERT-RPE CSB-KO cells expressing Myc-CSB or Myc-CSB-AAA; PLA between Myc-CSB and RPA32-pS33; HU-treated (Supplementary Figure S6A).
For experiment [3] the target is unchanged. In words: proximity ligation; U2OS cells; Duolink PLA between endogenous CSB and RPA32-pS33 or RPA32-pS4/S8; with or without 4 mM HU for 4 h; U2OS CSB-KO as control; also after siMUS81 or siSMARCAL1.
In experiment [4] the target is RPA32-pS4/S8 (human (endogenous in U2OS)) (UniProt P15927). The experiment is described as above.

Results are given in words; binding and its absence hold for the method and conditions named. In cells and extracts the contact can be indirect. Some entries that bind do so weakly or less than the wild type.

“mCherry-LacR-CSB full length carrying R176Q177K178-AAA mutations (from UniProt Q03468-1 1-1493)”: the binding result with Myc-RPA70 is given as “binds”. With “mCherry-LacR-CSB full length (from UniProt Q03468-1 1-1493)”, the binding entry with Myc-RPA32 was “binds”. For “Myc-CSB-R176Q177K178-AAA (from UniProt Q03468-1 1-1493)”, the binding entry in experiment [1] and in experiment [2] was “binds” in each case. Turning to “endogenous CSB (from UniProt Q03468-1 1-1493)”, the binding entry in experiment [3] and in experiment [4] was “binds” in each case. As to “Myc-tagged wild type CSB (from UniProt Q03468-1 1-1493)”, the binding entry in experiment [1] and in experiment [2] was “binds” each time.
